PubChem BioAssay AID686943 – Drosophila RNAi Screening Center | 2013
The deposit covers about 23,000 reagents; this is a random part of those with a known target gene and a result. 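Extra replicates exist only for a retested subset of genes; insulin dose and duration not given; both raised and lowered dpERK matter.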 Names joined by + are all predicted targets of the reagent. Not stated in the record: the amount of reagent, the time to read-out.

- Screen: 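Search across the genome for regulators of signalling from receptor tyrosine kinase to ERK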 (primary screen)
- Cells: Drosophila S2R+ haemocyte-like cells expressing YFP-tagged ERK (Rolled)
- Knock-down reagent: long dsRNA against Drosophila genes
- Treatment: insulin stimulation versus unstimulated cells; dose and duration not given
- Read-out: 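Antibody staining for doubly phosphorylated ERK divided by ERK-YFP signal, as plate z-scores, in insulin-treated and untreated cells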
- Direction: replicate 1, z-score of dpERK with insulin and replicate 2, z-score of dpERK with insulin: higher = more active ERK per ERK-YFP after insulin; replicate 1, z-score of dpERK under basal conditions: higher = more basal active ERK per ERK-YFP; replicate 1, z-score of ERK-YFP with insulin: higher = more YFP-tagged ERK signal

Gene,dsRNA,"replicate 1, z-score of dpERK with insulin","replicate 2, z-score of dpERK with insulin","replicate 1, z-score of dpERK under basal conditions","replicate 1, z-score of ERK-YFP with insulin"
Vha36-3,DRSC18615,-0.65,0.07,-0.45,1.34
RpLP1,DRSC00783,-3.3,-3.35,-4.57,-2.57
RpLP1,DRSC22145,1.85,-2.13,3.2,-2.48
eIF3i,DRSC03464,-1.9,-2.18,-0.01,-0.94
CG14499,DRSC06470,0.79,-0.03,0.36,-0.29
Nepl10,DRSC07212,-0.36,-0.69,0.54,0.38
Rpn12R,DRSC09842,-1.55,-0.26,-1.07,0.6
robl,DRSC07674,-0.67,0.21,1.31,0.06
hb,DRSC16963,-0.29,-0.23,-0.47,-0.08
CG15211,DRSC19657,3.21,0.94,1.06,0.04
CG10984,DRSC09817,1.76,1.31,-0.08,0.22
Sec63,DRSC11002,0.38,0.18,-0.77,0.91
Rbp4,DRSC16818,0.18,1.27,1.27,-0.17
hpRNA:CR32207,DRSC09616,0,0.45,-0.32,0.3
Tep1,DRSC03450,0.39,0.06,0.46,-0.28
mRpL19,DRSC16367,0.57,0.52,0.13,-0.17
mRpL19,DRSC21618,0.52,0.58,-0.55,-0.84
Sdb,DRSC06272,0.3,0.29,2.05,0.58
Sdb,DRSC06273,1.59,0.55,0.14,-0.84
Sdb,DRSC07155,0.55,0.15,0.03,-0.34
Tfb1,DRSC07082,0.31,1.28,-1.63,0.46
Bap60,DRSC19337,-0.72,-1.28,-1.05,-0.21
Pop5,DRSC10074,0.46,1.04,2.23,1.32
RpL24-like,DRSC16111,-0.36,-0.42,-1.86,-1.95
CG5217,DRSC15740,-0.17,0.52,-1.02,0.82
SLC5A11,DRSC03088,0.22,-0.06,-0.2,0.84
EloB,DRSC16663,0.32,1.15,0.01,0.39
Dim1,DRSC00563,1.86,1.03,1.16,-0.49
mr,DRSC04332,-0.14,-0.24,-0.22,0.42
mr,DRSC22856,-0.47,-0.49,-0.06,-0.99
CG42399,DRSC00322,0.99,-0.16,-0.48,-0.75
CG42399,DRSC00661,0.19,-0.11,0.47,-0.08
CG33752,DRSC05351,0.16,0.07,-0.46,-0.17
Ypel,DRSC17996,0.08,0.24,-0.51,0.31
mbc,DRSC16995,-0.79,-0.45,1.88,-0.09
Naa80,DRSC16429,-0.37,0.24,-0.91,1.91
Inx3,DRSC14857,1.72,1.53,-0.12,-0.25
Golgin245,DRSC04374,0.52,0.8,0.34,0.05
Golgin245,DRSC22012,0.26,1.21,0.91,0.93
Dolk,DRSC07143,0.66,0.11,0.97,0.28
CG15546,DRSC15084,1.61,-0.01,-0.77,0.37
CG15546,DRSC22831,0.57,0.8,0.08,0.44
CG9240,DRSC20177,0.02,0.01,-1.01,-0.4
CG14185,DRSC10184,1.3,0.5,0.4,-0.04
Nmda1,DRSC07479,-0.36,-0.87,-0.08,0.86
CG10834,DRSC03693,0.22,-0.25,-1.28,0.05
CG10931,DRSC06015,-1.14,-0.09,-0.94,0.13
CG10508,DRSC11612,1.38,1.05,0.21,-0.17
CG10508,DRSC11613,0.74,-0.73,0.94,-0.07
CG13989,DRSC02321,0.31,-0.13,-0.5,-0.51
Pde1c,DRSC02421,-1.21,-0.26,0.27,-0.97
Pde1c,DRSC02422,0.4,-0.05,0.82,0.18
Pde1c,DRSC02423,-0.93,-0.72,-0.58,1.47
Pde1c,DRSC02424,-0.24,0.15,-0.21,0.56
Pde1c,DRSC02425,0.58,-0.08,0.14,1.07
Pde1c,DRSC02426,-0.82,-1.13,-1.59,0
Syngr,DRSC06003,0.46,0.08,-0.07,-0.98
CR32821 + CR43381 + CR43377 + 1 more,DRSC22544,-1.26,0.21,-0.19,1.59
CG40341 (retired record),DRSC01767,0.52,0.85,-0.55,0.52
CG40341 (retired record),DRSC03750,1.47,0.37,-1.98,-0.48
Dp1,DRSC07403,0.52,1.04,-0.13,-0.1
CG9008,DRSC01889,1.37,0.76,0.12,-0.68
CG14743,DRSC06479,-0.48,0.19,-0.48,-0.21
CG7685,DRSC16285,-0.03,0.87,0.37,-0.87
ChT,DRSC16296,-0.18,-0.55,-0.82,0.27
MetRS-m,DRSC16443,-0.78,-0.38,1.64,-0.58
MetRS-m,DRSC16515,0.19,-0.99,-0.06,0.34
CG10321,DRSC04061,0.46,-0.54,-0.2,0.27
rec,DRSC14998,0.48,0.47,-1.01,-0.14
rec,DRSC15656,-0.48,0.75,0.38,0.48
Ubr1,DRSC20148,-1.83,-2.4,-1.66,3.2
Es2,DRSC18663,0.69,0.59,-0.16,-0.15
Prim1,DRSC11137,-0.31,0.66,-0.07,0.53
